Measurements taken from PubChem BioAssay AID296 (DTP/NCI, 2004).
The list shows only some results of the screen, not a fair sample: it is rich in T/C values a quarter to a half above the control, in often repeated tests (any T/C) and in doses without a T/C. Other doses and runs of a compound stand elsewhere. T/C: endpoint of the treated group in % of that of the vehicle group. Schedules are NCI's codes, read here as Q, the interval in days (D) or hours (H), X, the number of doses. Some T/C values are followed by the survivors on the day toxicity was checked, most often the fifth; without a count, all were alive then. Some doses were run more than once; their values stand side by side, smallest first. Some doses have a count of surviving animals in place of a T/C: the source files T/C as zero there, which appears to mark a toxic dose or a test without result, not a measured value. Counts of survivors are from the toxicity check (mostly the fifth day) where no day follows; animals may have died later.

Tested on: MX-1 breast xenograft, nude mice, tumor weight T/C
Experiment: NCI In Vivo Anticancer Drug Screen. Data for tumor model Human Mammary Carcinoma MX-1 Xenograft (intrarenal inoculation) in NU/NU Swiss (nude) mice
Settings: T/C endpoint: mean tumor weight change, higher T/C = larger tumour; for T/C: evaluated on day 11
Method in brief: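 Antitumour effect measured in vivo against vehicle controls, expressed as T/C.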

[1] = dose: 200.0 mg/kg/injection, schedule: Q01DX010 (sc), vehicle: saline

**Q.** Which T/C (dose: 1.0 mg/kg/injection, schedule: Q01DX010 (sc), vehicle: saline) does the source give for `CC[C@H]1CN2CCc3cc(OC)c(OC)cc3[C@@H]2C[C@@H]1C[C@H]1NCCc2cc(OC)c(OC)cc21` here?
**A.** 137 % of control

**Q.** What about the survivor count (dose: 8.0 mg/kg/injection, schedule: Q01DX010 (sc), vehicle: saline) of the same compound?
**A.** 0 of 3 on day 11

**Q.** With `NC(CNC(=O)CBr)C(=O)O` (configuration not stated) as the compound, how does the survivor count (dose: 200.0 mg/kg/injection, schedule: Q04DX003 (sc), vehicle: water) read?
**A.** 1 of 6 on day 11

**Q.** What about the survivor count (dose: 300.0 mg/kg/injection, schedule: Q04DX003 (sc), vehicle: water) of the same compound?
**A.** 0 of 6 on day 11

**Q.** For `COC1=CCC23C(=O)C=CC(=O)C2(C1)C(=O)c1ccccc1C3=O` (configuration not stated), which survivor count (dose: 75.0 mg/kg/injection, schedule: Q04DX003 (ip), vehicle: saline with Tween-80) is on record?
**A.** 3 of 6 on day 11

**Q.** What about the survivor count (dose: 150.0 mg/kg/injection, schedule: Q04DX003 (ip), vehicle: saline with Tween-80) of the same compound?
**A.** 3 of 6 on day 11

**Q.** What about the survivor count (dose: 300.0 mg/kg/injection, schedule: Q04DX003 (ip), vehicle: saline with Tween-80) of the same compound?
**A.** 0 of 6 on day 11

**Q.** For `CC(=O)OC1OC(=O)C(C)(C(C)=O)C1C` (configuration not stated), which T/C (dose: 40.0 mg/kg/injection, schedule: Q04DX003 (ip), vehicle: distilled water + alcohol) is on record?
**A.** 129 % of control [5 of 6 alive on day 11]

**Q.** How did the survivor count (dose: 25.0 mg/kg/injection, schedule: Q01DX010 (sc), vehicle: saline with Tween-80) turn out when `CN1CCN(Cc2nc3cccc4c3c([n+]2[O-])-c2ccccc2-4)CC1` was run?
**A.** 1 of 2 on day 11

**Q.** With `Ic1ncnc2c1ncn2C1CCCO1` (configuration not stated) as the compound, how does the T/C (dose: 100.0 mg/kg/injection, schedule: Q04DX003 (sc), vehicle: Klucel (hydroxypropylcellulose) (HPC)) read?
**A.** 141 % of control

**Q.** What does the source list for `CCN(CC)CCCC(C)Nc1c2ccc(Cl)cc2nc2ccc(OC)cc12` (configuration not stated)?
**A.** survivor count (dose: 200.0 mg/kg/injection, schedule: Q01DX010 (sc), vehicle: saline with Tween-80): 0 of 3 on day 11; survivor count (dose: 400.0 mg/kg/injection, schedule: Q01DX010 (sc), vehicle: saline with Tween-80): 0 of 2 on day 11

**Q.** With `CNc1nc(NC)nc(NC)n1` as the compound, how does the T/C (dose: 50.0 mg/kg/injection, schedule: Q01DX010 (ip), vehicle: Klucel (hydroxypropylcellulose) (HPC)) read?
**A.** 130 % of control

**Q.** What about the T/C (dose: 50.0 mg/kg/injection, schedule: Q01DX010 (sc), vehicle: Klucel (hydroxypropylcellulose) (HPC)) of the same compound?
**A.** 131 % of control [2 of 2 alive on day 11]

**Q.** What about the T/C (dose: 83.0 mg/kg/injection, schedule: Q04DX003 (ip), vehicle: Klucel (hydroxypropylcellulose) (HPC)) of the same compound?
**A.** 129 % of control [2 of 2 alive on day 11]

**Q.** And the T/C (dose: 166.6 mg/kg/injection, schedule: Q04DX003 (sc), vehicle: Klucel (hydroxypropylcellulose) (HPC))?
**A.** 125 % of control [2 of 2 alive on day 11]

**Q.** And the survivor count (dose: 200.0 mg/kg/injection, schedule: Q01DX010 (sc), vehicle: Klucel (hydroxypropylcellulose) (HPC))?
**A.** 0 of 3 on day 11

**Q.** What about the survivor count (dose: 333.3 mg/kg/injection, schedule: Q04DX003 (sc), vehicle: Klucel (hydroxypropylcellulose) (HPC)) of the same compound?
**A.** 0 of 3 on day 11

**Q.** And the survivor count (dose: 333.33 mg/kg/injection, schedule: Q04DX003 (ip), vehicle: Klucel (hydroxypropylcellulose) (HPC))?
**A.** 1 of 3 on day 11

**Q.** And the survivor count (dose: 400.0 mg/kg/injection, schedule: Q01DX010 (sc), vehicle: Klucel (hydroxypropylcellulose) (HPC))?
**A.** 0 of 3 on day 11

**Q.** And the survivor count (dose: 666.6 mg/kg/injection, schedule: Q04DX003 (sc), vehicle: Klucel (hydroxypropylcellulose) (HPC))?
**A.** 0 of 3 on day 11

**Q.** What about the survivor count (dose: 666.65 mg/kg/injection, schedule: Q04DX003 (ip), vehicle: Klucel (hydroxypropylcellulose) (HPC)) of the same compound?
**A.** 0 of 3 on day 11

**Q.** And the survivor count (dose: 1333.3 mg/kg/injection, schedule: Q04DX003 (sc), vehicle: Klucel (hydroxypropylcellulose) (HPC))?
**A.** 0 of 3 on day 11

**Q.** With `F[B-](F)(F)F` as the compound, how does the survivor count (dose: 2400.0 mg/kg/injection, schedule: Q04DX003 (sc), vehicle: gum acacia) read?
**A.** 3 of 6 on day 11

**Q.** How did the survivor count (dose: 12.0 mg/kg/injection, schedule: Q04DX003 (sc), vehicle: saline) turn out when `CCC1(O)CC2CN(CCc3c([nH]c4ccccc34)C(C(=O)OC)(c3cc4c(cc3OC)N(C)C3C(O)(C(=O)NCCSSCCNC(=O)C5(O)C(O)C6(CC)C=CCN7CCC8(c9cc(C%10(C(=O)OC)CC%11CN(CCc%12c%10[nH]c%10ccccc%12%10)CC(O)(CC)C%11)c(OC)cc9N(C)C58)C76)C(O)C5(CC)C=CCN6CCC43C65)C2)C1` (configuration not stated) was run?
**A.** 0 of 6 on day 11

**Q.** `COc1cccc2c1C(=O)c1c(O)c3c(c(O)c1C2=O)C[C@@](O)(/C(C)=N/NC(=O)c1ccccc1)C[C@@H]3OC1CC(N)C(O)C(C)O1` (some centres not stated) was tested. Which survivor count (dose: 75.0 mg/kg/injection, schedule: Q04DX003 (sc), vehicle: water) did it give?
**A.** 0 of 6 on day 11

**Q.** What about the survivor count (dose: 150.0 mg/kg/injection, schedule: Q04DX003 (sc), vehicle: water) of the same compound?
**A.** 0 of 6 on day 11

**Q.** Which survivor count (dose: 1600.0 mg/kg/injection, schedule: Q04DX003 (sc), vehicle: saline with Tween-80) does the source give for `CC(=O)Oc1ccc[nH]c1=O` here?
**A.** 0 of 6 on day 11

**Q.** With `CNc1nc2c(N)ncnc2n1C1OC(CO)C(O)C1O` (configuration not stated) as the compound, how does the survivor count (dose: 100.0 mg/kg/injection, schedule: Q04DX003 (sc), vehicle: saline) read?
**A.** 2 of 6 on day 11

**Q.** How did the survivor count (dose: 24.0 mg/kg/injection, schedule: Q04DX003 (sc), vehicle: distilled water + alcohol) turn out when `C=C(C)[C@]12CC(C)C34OC(/C=C\C=C\CCCCCCCCC)(O[C@@H]1[C@@H]3[C@@H]1O[C@]1(CO)[C@@H](O)[C@]1(O)C(=O)C(C)=C[C@@H]41)O2` (some centres not stated) was run?
**A.** 3 of 6 on day 11

**Q.** What about the survivor count (dose: 48.0 mg/kg/injection, schedule: Q04DX003 (sc), vehicle: distilled water + alcohol) of the same compound?
**A.** 3 of 6 on day 11

**Q.** Which results are given for `C[CH2][Sn]([CH2]C)([CH2]C(=O)OC)[CH2]C(=O)OC`?
**A.** survivor count (dose: 50.0 mg/kg/injection, schedule: Q04DX003 (sc), vehicle: saline with Tween-80): 1 of 6 on day 11; survivor count (dose: 100.0 mg/kg/injection, schedule: Q04DX003 (sc), vehicle: saline with Tween-80): 0 of 6 on day 11

**Q.** `COC(=O)C[C@](O)(CCCC(C)(C)O)C(=O)O[C@@H]1C(OC)=C[C@]23CCCN2CCc2cc4c(cc2[C@H]13)OCO4` was tested. Which survivor count (dose: 2.0 mg/kg/injection, schedule: Q01DX010 (sc), vehicle: saline) did it give?
**A.** 1 of 3 on day 11

**Q.** And the survivor count (dose: 4.0 mg/kg/injection, schedule: Q01DX010 (sc), vehicle: saline)?
**A.** 0 of 3 on day 11

**Q.** For `O=[N+]([O-])c1c(O)c(CNCCCO)cc(CNCCCO)c1O`, which survivor count (dose: 150.0 mg/kg/injection, schedule: Q04DX003 (ip), vehicle: suspension in saline) is on record?
**A.** 1 of 6 on day 11

**Q.** And the survivor count (dose: 300.0 mg/kg/injection, schedule: Q04DX003 (ip), vehicle: suspension in saline)?
**A.** 0 of 6 on day 11

**Q.** `[Cl][Pt+2][Cl].[NH-]C1CCC1.[NH2-]` was tested. Which survivor count (dose: 50.0 mg/kg/injection, schedule: Q04DX003 (sc), vehicle: suspension in saline) did it give?
**A.** 0 of 6 on day 11 and 3 of 6 on day 11

**Q.** And the survivor count (dose: 100.0 mg/kg/injection, schedule: Q04DX003 (sc), vehicle: suspension in saline)?
**A.** 2 of 5 on day 11

**Q.** What does the source list for `N=C(N)Sc1ccccn1`?
**A.** T/C (dose: 50.0 mg/kg/injection, schedule: Q01DX010 (sc), vehicle: saline): 55, 56, 109, 158 % of control [2 of 2 alive on day 11]; T/C (dose: 100.0 mg/kg/injection, schedule: Q01DX010 (sc), vehicle: saline): 21 [2 of 2 alive on day 11], 38, 82, 120 % of control; T/C [1]: 29 [2 of 3 alive on day 11], 82, 109 % of control; survivor count [1]: 1 of 3 on day 11; survivor count (dose: 400.0 mg/kg/injection, schedule: Q01DX010 (sc), vehicle: saline): 0 of 2 on day 11, 0 of 3 on day 11, 0 of 6 on day 11

**Q.** With `CC[C@@]1(O)C[C@H](OC2CC(N(C)C)C(OC3CC(O)C(OC4CCC(=O)C(C)O4)C(C)O3)C(C)O2)c2c(cc3c(c2O)C(=O)c2c(O)ccc(O)c2C3=O)[C@H]1C(=O)OC` (some centres not stated) as the compound, how does the survivor count (dose: 12.0 mg/kg/injection, schedule: Q04DX003 (sc), vehicle: water) read?
**A.** 1 of 6 on day 11

**Q.** What about the survivor count (dose: 24.0 mg/kg/injection, schedule: Q04DX003 (sc), vehicle: water) of the same compound?
**A.** 0 of 6 on day 11

**Q.** `C=C1CC2(OC1=O)C(=O)N(C)c1ccc(I)cc12` (configuration not stated) was tested. Which T/C (dose: 2400.0 mg/kg/injection, schedule: Q04DX003 (sc), vehicle: suspension in saline) did it give?
**A.** 136 % of control [4 of 6 alive on day 11]
